Results are given in words; binding and its absence hold for the method and conditions named. Binding seen in cells or lysates may run through a third protein. Some entries that bind do so weakly or less than the wild type.
Biological target: hnRNPC (mouse (endogenous in P8 testes)) (UniProt Q9Z204)
Assay: co-IP; P8 WT mouse testis lysate, treated with or without RNase A (1 ug/mL, 30 min); Protein G magnetic beads with anti-hnRNPC antibody or rabbit IgG, overnight at 4 °C; Western blot of the immunoprecipitates

Sequences of proteins named here, by UniProt entry; tags and fusion partners are left off.
UniProt Q9Z204: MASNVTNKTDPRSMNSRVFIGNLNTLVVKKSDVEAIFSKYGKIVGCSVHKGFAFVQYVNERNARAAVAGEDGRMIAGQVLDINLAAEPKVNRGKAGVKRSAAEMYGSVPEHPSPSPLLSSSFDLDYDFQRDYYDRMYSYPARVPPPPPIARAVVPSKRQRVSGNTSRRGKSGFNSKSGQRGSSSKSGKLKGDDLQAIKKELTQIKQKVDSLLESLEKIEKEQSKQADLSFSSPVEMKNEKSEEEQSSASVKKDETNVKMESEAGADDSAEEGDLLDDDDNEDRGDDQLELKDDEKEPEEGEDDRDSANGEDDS

B1: BUD31 (protein, UniProt Q6PGH1 1-144)
chain: MPKVKRSRKAPPDGWELIEPTLDELDQKMREAETEPHEGKRKVESLWPIFRIHHQKTRYIFDLFYKRKAISRELYEYCIKEGYADKNLIAKWKKQGYENLCCLRCIQTRDTNFGTNCICRVPKSKLEVGRIIECTHCGCRGCSG
  binding: binds

B2: SF3B3 (protein, UniProt Q921M3 1-1217)
chain: MFLYNLTLQRATGISFAIHGNFSGTKQQEIVVSRGKILELLRPDPNTGKVHTLLTVEVFGVIRSLMAFRLTGGTKDYIVVGSDSGRIVILEYQPSKNMFEKIHQETFGKSGCRRIVPGQFLAVDPKGRAVMISAIEKQKLVYILNRDAAARLTISSPLEAHKANTLVYHVVGVDVGFENPMFACLEMDYEEADNDPTGEAAANTQQTLTFYELDLGLNHVVRKYSEPLEEHGNFLITVPGGSDGPSGVLICSENYITYKNFGDQPDIRCPIPRRRNDLDDPERGMIFVCSATHKTKSMFFFLAQTEQGDIFKITLETDEDMVTEIRLKYFDTVPVAAAMCVLKTGFLFVASEFGNHYLYQIAHLGDDDEEPEFSSAMPLEEGDTFFFQPRPLKNLVLVDELDSLSPILFCQIADLANEDTPQLYVACGRGPRSSLRVLRHGLEVSEMAVSELPGNPNAVWTVRRHIEDEFDAYIIVSFVNATLVLSIGETVEEVTDSGFLGTTPTLSCSLLGDDALVQVYPDGIRHIRADKRVNEWKTPGKKTIVKCAVNQRQVVIALTGGELVYFEMDPSGQLNEYTERKEMSADVVCMSLANVPPGEQRSRFLAVGLVDNTVRIISLDPSDCLQPLSMQALPAQPESLCIVEMGGTEKQDELGERGSIGFLYLNIGLQNGVLLRTVLDPVTGDLSDTRTRYLGSRPVKLFRVRMQGQEAVLAMSSRSWLSYSYQSRFHLTPLSYETLEFASGFASEQCPEGIVAISTNTLRILALEKLGAVFNQVAFPLQYTPRKFVIHPESNNLIIIETDHNAYTEATKAQRKQQMAEEMVEAAGEDERELAAEMAAAFLNENLPESIFGAPKAGNGQWASVIRVMNPIQGNTLDLVQLEQNEAAFSVAVCRFSNTGEDWYVLVGVAKDLILSPRSVAGGFVYTYKLVNNGEKLEFLHKTPVEEVPAAIAPFQGRVLIGVGKLLRVYDLGKKKLLRKCENKHIANYISGIQTIGHRVIVSDVQESFIWVRYKRNENQLIIFADDTYPRWVTTASLLDYDTVAGADKFGNICVVRLPPNTNDEVDEDPTGNKALWDRGLLNGASQKAEVIMNYHVGETVLSLQKTTLIPGGSESLVYTTLSGGIGILVPFTSHEDHDFFQHVEMHLRSEHPPLCGRDHLSFRSYYFPVKNVIDGDLCEQFNSMEPNKQKNVSEELDRTPPEVSKKLEDIRTRYAF
  binding: binds

B3: SF3A1 (protein, UniProt Q8K4Z5 1-791)
chain: MQAGPVQAVPPPPPVATESKQPIEEEASSKEDPTPSKPVVGIIYPPPEVRNIVDKTASFVARNGPEFEARIRQNEINNPKFNFLNPNDPYHAYYRHKVSEFKEGKAQEPSAAIPKVMQQQQQATQQQLPQKVQAQVIQETIVPKEPPPEFEFIADPPSISAFDLDVVKLTAQFVARNGRQFLTQLMQKEQRNYQFDFLRPQHSLFNYFTKLVEQYTKILIPPKGLFSKLKKEAENPREVLDQVCYRVEWAKFQERERKKEEEEKEKERVAYAQIDWHDFVVVETVDFQPNEQGNFPPPTTPEELGARILIQERYEKFGESEEVEMEVESDEEDQEKAEETPSQLDQDTQVQDMDEGSDDEEEGQKVPPPPETPMPPPLPPTPDQVIVRKDYDPKASKPLPPAPAPDEYLVSPITGEKIPASKMQEHMRIGLLDPRWLEQRDRSIREKQSDDEVYAPGLDIESSLKQLAERRTDIFGVEETAIGKKIGEEEIQKPEEKVTWDGHSGSMARTQQAAQANITLQEQIEAIHKAKGLVPEDDTKEKIGPSKPNEIPQQPPPPSSATNIPSSAPPITSVPRPPAMPPPVRTTVVSAVPVMPRPPMASVVRLPPGSVIAPMPPIIHAPRINVVPMPPAAPPIMAPRPPPMIVPTAFVPAPPVAPVPAPAPMPPVHPPPPMEDEPPSKKLKTEDSLMPEEEFLRRNKGPVSIKVQVPNMQDKTEWKLNGQGLVFTLPLTDQVSVIKVKIHEATGMPAGKQKLQYEGIFIKDSNSLAYYNMASGAVIHLALKERGGRKK
  binding: binds

From article PMC11967818
